Laboratory results taken from US20230151021A1, “Compounds and Compositions for Treating Hematologic Malignancies” (priority 2020, published 2023).
For at least one compound, name, drawing or mass did not settle the structure.

Key:
Raji cells = assay type: cell-based, human; details: 100 nM for 72 h
MOLM14 xenografts = assay: In vivo tumorigenic assay using xenografts; parameters: species or system NOD/SCID mice; details: 2 mg/kg intraperitoneally three times per week, two weeks
Method: Six-week-old male NOD.CB17-Prkdc^scid/J (NOD/SCID) mice (Jackson Labs, Bar Harbor, Me., USA) were used as the human-in-mouse xeno-transplantation model. MOLM14 cells (1×10^7 cells) were injected into the subcutaneous space on the left flank of the mice. Once xenografts reached a size of 100 mm^3, Brusatol and analogs (14, 15, 26, 31) at 2 mg/kg body weight or PBS were injected intraperitoneally three times per week. Body weight and tumor size were monitored before every injection. After treatment for two weeks, the mice were euthanized by CO2 inhalation and the tumors were carefully excised. The tumor volume (mm^3) was measured and calculated using the formula (a×b×b)/2 (a, the largest diameter of two measurements; b, the smallest diameter of two measurements).

[1] = system: 13 cell lines representing a range of hematologic malignancies; assay: Cell viability in panel of hematologic malignancy derived cell lines; details: 100 nM, 72 hours

With `COC(=O)[C@@]12OC[C@]34C([C@@H](O)[C@@H]1O)[C@@]1(C)CC(=O)C(OC(=O)C[C@H](C)N)=C(C)[C@@H]1C[C@H]3OC(=O)[C@H](OC(=O)C=C(C)C)[C@@H]24` (stereo partly drawn) [Compound 26, methyl (1R,2S,3S,3aS,3a1R,4R,6aR,7aR,11aS)-9-(((S)-3-aminobutanoyl)oxy)-1,2-dihydroxy-8,11a-dimethyl-4-((3-methylbut-2-enoyl)oxy)-5,10-dioxo-1,4,5,6a,7,7a,10,11,11a,11b-decahydro-2H-3,3a1-(epoxymethano)dibenzo[de,g]chromene-3(3aH)-carboxylate] as the compound, how does the “activity on viability of Raji cells (in words)” value (Raji cells) read?
The value was “potent activities comparable to or higher than the parent brusatol”.

What about the “tumor size response (in words)” value (MOLM14 xenografts) of the same compound?
Its value is “strong and rapid inhibitory response”.

What about the “inhibition of cell viability (in words)” value [1] of the same compound?
Its value is “significantly inhibit cell viability”.
